These are yes or no findings as the source states them, for the method shown. In cells and extracts the contact can be indirect.
Biological target: Halo-tagged DOCK11 (dedicator of cytokinesis 11) (UniProt Q5JSL3)
Test: co-IP

Protein sequences, listed by entry. Tags and fused reporters are not part of them.
UniProt Q5JSL3: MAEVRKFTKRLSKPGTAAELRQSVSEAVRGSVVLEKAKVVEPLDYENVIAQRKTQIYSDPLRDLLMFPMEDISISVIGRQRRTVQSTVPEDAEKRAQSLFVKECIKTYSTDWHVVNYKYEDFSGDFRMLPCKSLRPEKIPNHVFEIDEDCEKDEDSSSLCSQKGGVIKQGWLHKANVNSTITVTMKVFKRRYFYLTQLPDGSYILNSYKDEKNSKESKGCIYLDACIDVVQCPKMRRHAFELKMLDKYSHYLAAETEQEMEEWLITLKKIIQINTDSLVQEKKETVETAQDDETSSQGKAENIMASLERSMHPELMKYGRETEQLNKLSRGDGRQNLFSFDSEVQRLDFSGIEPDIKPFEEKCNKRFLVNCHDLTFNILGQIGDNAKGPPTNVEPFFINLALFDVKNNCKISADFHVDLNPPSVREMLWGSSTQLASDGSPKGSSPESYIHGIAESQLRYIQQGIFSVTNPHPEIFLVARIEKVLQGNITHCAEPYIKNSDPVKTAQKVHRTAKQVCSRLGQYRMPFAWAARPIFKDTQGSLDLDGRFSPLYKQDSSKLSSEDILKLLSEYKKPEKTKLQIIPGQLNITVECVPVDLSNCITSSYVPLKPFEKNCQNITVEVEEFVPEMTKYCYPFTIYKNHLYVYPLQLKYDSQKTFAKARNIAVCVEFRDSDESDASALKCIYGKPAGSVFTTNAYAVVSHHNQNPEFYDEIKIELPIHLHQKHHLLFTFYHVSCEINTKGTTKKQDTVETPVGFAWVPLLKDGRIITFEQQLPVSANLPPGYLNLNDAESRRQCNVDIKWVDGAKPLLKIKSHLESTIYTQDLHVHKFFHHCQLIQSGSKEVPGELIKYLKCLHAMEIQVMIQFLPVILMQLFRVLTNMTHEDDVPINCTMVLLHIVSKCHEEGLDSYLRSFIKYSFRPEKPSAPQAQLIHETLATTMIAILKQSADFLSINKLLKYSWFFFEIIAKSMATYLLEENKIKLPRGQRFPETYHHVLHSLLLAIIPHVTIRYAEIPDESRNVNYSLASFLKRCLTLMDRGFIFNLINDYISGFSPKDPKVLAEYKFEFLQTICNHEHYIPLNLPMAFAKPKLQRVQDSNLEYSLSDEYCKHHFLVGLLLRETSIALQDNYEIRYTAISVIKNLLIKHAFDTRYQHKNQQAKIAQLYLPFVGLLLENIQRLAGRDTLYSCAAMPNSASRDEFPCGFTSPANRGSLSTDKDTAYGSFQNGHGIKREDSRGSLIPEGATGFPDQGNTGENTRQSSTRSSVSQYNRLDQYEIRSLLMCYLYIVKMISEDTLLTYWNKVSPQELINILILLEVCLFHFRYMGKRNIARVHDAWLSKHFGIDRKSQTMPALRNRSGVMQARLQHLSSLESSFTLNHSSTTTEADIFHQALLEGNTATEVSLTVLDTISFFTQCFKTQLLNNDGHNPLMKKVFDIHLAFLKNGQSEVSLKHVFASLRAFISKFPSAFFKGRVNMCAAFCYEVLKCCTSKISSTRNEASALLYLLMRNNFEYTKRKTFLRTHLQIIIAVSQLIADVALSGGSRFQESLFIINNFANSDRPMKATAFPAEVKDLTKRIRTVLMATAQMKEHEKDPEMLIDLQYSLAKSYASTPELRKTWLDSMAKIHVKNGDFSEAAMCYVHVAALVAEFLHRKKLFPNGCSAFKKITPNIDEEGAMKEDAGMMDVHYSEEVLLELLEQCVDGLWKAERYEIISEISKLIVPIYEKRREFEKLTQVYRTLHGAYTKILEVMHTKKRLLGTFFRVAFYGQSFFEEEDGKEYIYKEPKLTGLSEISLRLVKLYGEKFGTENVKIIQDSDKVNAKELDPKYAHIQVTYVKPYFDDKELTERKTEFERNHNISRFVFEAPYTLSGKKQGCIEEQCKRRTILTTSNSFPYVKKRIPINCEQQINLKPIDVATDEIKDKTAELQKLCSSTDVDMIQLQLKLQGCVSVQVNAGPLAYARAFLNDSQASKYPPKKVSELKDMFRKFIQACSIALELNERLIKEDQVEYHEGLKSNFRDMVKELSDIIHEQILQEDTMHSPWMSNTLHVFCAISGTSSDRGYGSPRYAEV
UniProt P45973: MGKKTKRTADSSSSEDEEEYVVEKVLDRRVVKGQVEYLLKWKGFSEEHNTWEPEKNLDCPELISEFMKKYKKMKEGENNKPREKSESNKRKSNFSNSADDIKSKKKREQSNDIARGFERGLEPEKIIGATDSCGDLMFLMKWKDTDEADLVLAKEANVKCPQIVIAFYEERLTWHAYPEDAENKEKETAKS

For “heterochromatin protein 1 alpha (HP1α) (from UniProt P45973 1-191)”, the binding was “no binding”.

— paper PMC10223333
